PubChem BioAssay AID686937, Drosophila RNAi Screening Center | 2013
Assay: 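Genes in the fly needed for secretion of protein constitutively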 (primary screen). Cells: Drosophila S2 cells expressing secreted horseradish peroxidase. Knock-down reagent: long dsRNA against Drosophila genes. Timing: about 5.5 days (5 days dsRNA, then 12 h reporter induction). Treatment: reporter expression induced after 5 days of dsRNA, read 12 h later; inducer not stated. Read-out: 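Chemiluminescent measurement of peroxidase in the medium 12 h after reporter induction, following 5 days of dsRNA, given as a z-score per plate; higher means more secretion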. Scale: z-score: higher = more reporter secreted into medium.
The screen tested about 23,000 reagents; below is a random part of those that have a named target and a result. 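Reduced-secretion tags in replicate 1 do not always agree with the z-scores; no criterion for assigning the tags was given.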 A plus sign joins genes that one reagent is predicted to hit. Reagent sequences are not shown. Not given: the amount of reagent.

predicted target | amplicon | z-score, replicate 1 | z-score, replicate 2 | phenotype, replicate 1
TyrRS-m (Tyrosyl-tRNA synthetase, mitochondrial) | DRSC04286 | 0.07 | 0.11 | –
CG5543 | DRSC04511 | -0.49 | -0.32 | –
ATP8A (ATPase 8A) | DRSC05421 | 0.47 | 0.28 | –
ATP8A (ATPase 8A) | DRSC06643 | 0.1 | 0.29 | –
ATP8A (ATPase 8A) | DRSC06644 | 0.35 | 0.15 | –
whe (what else) | DRSC20537 | 0.28 | 0.3 | –
CG11349 | DRSC08179 | 0.22 | 0.47 | –
CG43342 | DRSC13561 | 0.2 | 0.28 | –
CG13843 | DRSC14693 | -0.74 | 0.59 | –
wal (walrus) | DRSC07717 | 0.42 | -0.02 | –
CG16719 | DRSC10222 | 0.07 | -0.05 | –
ftz (fushi tarazu) | DRSC12626 | 0.27 | 0.83 | –
bor (belphegor) | DRSC16915 | -0.12 | -0.83 | –
Nf-YA (Nuclear factor Y-box A) | DRSC10385 | -3.39 | -4.37 | reduced secretion
wac (wee Augmin) | DRSC08349 | 0.57 | 0.26 | –

2 entries already listed, arranged by “z-score, replicate 1”, lowest first:
predicted target | amplicon | z-score, replicate 1 | z-score, replicate 2 | phenotype, replicate 1
Nf-YA (Nuclear factor Y-box A) | DRSC10385 | -3.39 | -4.37 | reduced secretion
wac (wee Augmin) | DRSC08349 | 0.57 | 0.26 | –

Next records:
predicted target | amplicon | z-score, replicate 1 | z-score, replicate 2 | phenotype, replicate 1
Pstk + Tim9b | DRSC19504 | 0.34 | 0.54 | –
Pstk + Tim9b | DRSC20292 | 0.52 | 0.27 | –
CG14647 | DRSC12233 | 0.26 | 0.47 | –
CG14647 | DRSC22497 | 0.44 | -0.15 | –
Rchy1 (Ring finger and CHY zinc finger domain containing 1) | DRSC02542 | 0.11 | -0.41 | –
Burs (Bursicon) | DRSC14595 | 0.45 | 0 | –
CG9686 | DRSC18439 | -0.87 | -0.7 | –
l(2)k14505 (lethal (2) k14505) | DRSC03106 | 0.29 | 0.4 | –
CG15653 | DRSC04244 | 0.23 | 0.32 | –
CG42537 | DRSC12519 | 0.42 | 0.46 | –
CG14316 | DRSC14795 | 0.26 | 0.39 | –
CG10338 | DRSC02039 | 0.38 | 0.29 | –
CG45105 | DRSC15002 | 0.13 | -0.66 | –
CG45105 | DRSC15833 | -2.37 | -0.95 | reduced secretion
Pino (Pinocchio) | DRSC00038 | -5.7 | -1.1 | reduced secretion
Pino (Pinocchio) | DRSC00662 | -0.34 | -0.3 | –
CG11475 | DRSC04113 | 0.47 | 0.31 | –
lms (lateral muscles scarcer) | DRSC06387 | 0.35 | 0.43 | –
